Laboratory results reported in the supplement of paper PMC11006884.
The list shows a part of the results, in another mix than the full data.

The chains behind the UniProt entries cited, without tags or fusion partners. Where a name states a change or a piece, a line headed by the entry shows the natural chain unless it says otherwise.
UniProt P51687: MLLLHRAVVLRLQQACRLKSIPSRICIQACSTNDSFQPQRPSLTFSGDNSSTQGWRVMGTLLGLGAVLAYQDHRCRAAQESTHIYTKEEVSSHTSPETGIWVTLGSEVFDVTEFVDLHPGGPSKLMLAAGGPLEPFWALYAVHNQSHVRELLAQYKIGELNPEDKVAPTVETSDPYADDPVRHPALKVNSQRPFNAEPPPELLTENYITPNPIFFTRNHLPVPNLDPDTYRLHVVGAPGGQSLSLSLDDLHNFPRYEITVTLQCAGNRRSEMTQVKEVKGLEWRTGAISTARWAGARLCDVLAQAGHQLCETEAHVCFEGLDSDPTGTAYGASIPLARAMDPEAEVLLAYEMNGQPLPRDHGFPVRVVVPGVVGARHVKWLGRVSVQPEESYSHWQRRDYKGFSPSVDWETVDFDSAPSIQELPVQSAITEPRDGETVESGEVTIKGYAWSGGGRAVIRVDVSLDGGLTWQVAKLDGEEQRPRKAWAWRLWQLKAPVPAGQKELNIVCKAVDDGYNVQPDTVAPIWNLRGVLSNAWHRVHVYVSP
UniProt P52732: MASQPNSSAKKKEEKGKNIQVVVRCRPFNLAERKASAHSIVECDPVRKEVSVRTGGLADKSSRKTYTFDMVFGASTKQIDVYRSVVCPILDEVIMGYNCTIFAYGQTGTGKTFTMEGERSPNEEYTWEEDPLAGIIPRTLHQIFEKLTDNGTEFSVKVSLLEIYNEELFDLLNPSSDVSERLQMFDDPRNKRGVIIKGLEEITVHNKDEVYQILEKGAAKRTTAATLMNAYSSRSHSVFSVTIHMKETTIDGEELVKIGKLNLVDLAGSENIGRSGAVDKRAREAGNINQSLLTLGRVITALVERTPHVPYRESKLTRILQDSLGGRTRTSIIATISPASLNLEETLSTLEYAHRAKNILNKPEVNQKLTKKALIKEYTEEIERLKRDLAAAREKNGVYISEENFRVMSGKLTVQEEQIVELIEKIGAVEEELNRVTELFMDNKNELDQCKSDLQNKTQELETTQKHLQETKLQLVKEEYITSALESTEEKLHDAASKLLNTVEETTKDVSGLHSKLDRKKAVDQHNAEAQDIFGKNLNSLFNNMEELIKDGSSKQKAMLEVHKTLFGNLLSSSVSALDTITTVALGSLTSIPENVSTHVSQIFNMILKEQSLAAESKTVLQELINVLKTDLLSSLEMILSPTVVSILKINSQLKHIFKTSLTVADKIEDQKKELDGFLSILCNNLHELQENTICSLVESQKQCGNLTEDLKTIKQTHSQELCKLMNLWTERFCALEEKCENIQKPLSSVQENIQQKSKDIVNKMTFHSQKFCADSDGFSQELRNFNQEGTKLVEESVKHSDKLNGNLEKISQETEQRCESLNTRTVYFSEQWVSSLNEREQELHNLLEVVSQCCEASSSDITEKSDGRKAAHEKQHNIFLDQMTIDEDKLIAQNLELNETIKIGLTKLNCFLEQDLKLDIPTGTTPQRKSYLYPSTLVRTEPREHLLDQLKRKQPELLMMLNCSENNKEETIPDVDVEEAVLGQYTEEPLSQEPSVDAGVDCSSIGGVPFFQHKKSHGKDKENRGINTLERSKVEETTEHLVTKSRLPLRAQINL
UniProt P55265: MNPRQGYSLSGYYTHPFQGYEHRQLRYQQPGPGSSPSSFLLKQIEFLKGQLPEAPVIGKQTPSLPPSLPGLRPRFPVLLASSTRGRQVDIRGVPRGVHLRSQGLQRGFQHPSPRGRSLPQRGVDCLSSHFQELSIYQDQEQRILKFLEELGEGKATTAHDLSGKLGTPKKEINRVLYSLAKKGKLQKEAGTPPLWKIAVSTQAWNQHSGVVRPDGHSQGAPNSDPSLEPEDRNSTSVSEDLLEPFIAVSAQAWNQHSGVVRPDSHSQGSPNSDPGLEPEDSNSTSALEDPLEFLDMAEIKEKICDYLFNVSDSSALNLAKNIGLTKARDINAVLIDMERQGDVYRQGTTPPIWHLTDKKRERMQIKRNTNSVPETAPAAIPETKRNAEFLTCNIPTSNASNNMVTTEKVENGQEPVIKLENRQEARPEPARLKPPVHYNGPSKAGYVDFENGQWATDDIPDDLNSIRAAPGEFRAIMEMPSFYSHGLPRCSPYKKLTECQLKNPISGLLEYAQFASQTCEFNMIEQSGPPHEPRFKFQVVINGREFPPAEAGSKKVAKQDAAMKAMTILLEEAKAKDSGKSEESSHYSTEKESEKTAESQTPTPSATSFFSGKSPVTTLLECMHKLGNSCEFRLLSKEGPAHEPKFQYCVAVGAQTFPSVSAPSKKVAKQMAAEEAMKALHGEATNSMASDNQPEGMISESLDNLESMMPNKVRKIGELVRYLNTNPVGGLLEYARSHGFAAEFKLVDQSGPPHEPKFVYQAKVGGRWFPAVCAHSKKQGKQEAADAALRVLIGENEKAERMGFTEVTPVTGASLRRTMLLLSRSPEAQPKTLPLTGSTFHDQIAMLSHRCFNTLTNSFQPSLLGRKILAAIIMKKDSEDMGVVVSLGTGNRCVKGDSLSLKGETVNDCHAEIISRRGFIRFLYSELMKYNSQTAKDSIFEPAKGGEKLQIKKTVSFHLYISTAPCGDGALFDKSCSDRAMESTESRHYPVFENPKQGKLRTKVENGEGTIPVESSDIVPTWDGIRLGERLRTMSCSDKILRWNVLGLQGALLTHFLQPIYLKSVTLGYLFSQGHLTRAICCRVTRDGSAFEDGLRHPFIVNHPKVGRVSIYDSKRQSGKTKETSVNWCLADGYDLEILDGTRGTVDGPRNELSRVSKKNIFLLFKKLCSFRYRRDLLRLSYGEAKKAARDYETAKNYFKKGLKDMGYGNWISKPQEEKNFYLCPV
UniProt P60891: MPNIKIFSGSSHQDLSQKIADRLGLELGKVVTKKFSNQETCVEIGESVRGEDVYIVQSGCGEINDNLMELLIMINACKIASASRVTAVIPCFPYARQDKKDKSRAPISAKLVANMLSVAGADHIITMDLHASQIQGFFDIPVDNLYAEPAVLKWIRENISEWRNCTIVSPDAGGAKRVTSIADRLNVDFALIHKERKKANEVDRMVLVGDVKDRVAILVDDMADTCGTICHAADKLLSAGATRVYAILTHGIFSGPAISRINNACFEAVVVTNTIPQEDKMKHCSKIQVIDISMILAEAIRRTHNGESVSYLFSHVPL
UniProt P52272: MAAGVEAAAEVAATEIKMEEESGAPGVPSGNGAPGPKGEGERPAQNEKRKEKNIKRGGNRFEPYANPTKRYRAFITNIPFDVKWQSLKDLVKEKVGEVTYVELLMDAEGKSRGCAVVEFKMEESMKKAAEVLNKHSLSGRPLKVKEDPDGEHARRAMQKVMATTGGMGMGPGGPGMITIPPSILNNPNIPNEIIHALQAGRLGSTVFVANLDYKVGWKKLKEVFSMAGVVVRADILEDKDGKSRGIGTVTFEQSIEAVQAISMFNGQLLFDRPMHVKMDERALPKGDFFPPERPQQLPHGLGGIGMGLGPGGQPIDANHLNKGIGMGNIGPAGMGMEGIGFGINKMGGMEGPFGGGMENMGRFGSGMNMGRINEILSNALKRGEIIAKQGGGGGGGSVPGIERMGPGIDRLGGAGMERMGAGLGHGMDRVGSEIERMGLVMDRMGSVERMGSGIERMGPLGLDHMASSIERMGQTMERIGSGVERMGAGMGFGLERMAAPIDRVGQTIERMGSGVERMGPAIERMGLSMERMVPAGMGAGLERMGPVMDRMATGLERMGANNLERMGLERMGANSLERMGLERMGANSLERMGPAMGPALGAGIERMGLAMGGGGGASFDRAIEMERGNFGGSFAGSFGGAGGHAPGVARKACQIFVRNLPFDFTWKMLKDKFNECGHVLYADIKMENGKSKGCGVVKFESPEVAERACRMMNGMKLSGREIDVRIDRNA
UniProt P62068, whole entry: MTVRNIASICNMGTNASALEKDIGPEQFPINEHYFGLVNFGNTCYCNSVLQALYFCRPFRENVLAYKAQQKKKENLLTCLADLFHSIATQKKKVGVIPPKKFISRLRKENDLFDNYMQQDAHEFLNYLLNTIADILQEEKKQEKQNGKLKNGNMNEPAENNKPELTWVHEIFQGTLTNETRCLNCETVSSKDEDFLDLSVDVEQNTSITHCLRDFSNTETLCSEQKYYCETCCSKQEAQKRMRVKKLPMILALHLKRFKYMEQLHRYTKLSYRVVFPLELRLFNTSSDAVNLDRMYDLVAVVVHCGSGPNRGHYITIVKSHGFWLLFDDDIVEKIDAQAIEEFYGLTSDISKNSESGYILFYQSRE
UniProt P53701: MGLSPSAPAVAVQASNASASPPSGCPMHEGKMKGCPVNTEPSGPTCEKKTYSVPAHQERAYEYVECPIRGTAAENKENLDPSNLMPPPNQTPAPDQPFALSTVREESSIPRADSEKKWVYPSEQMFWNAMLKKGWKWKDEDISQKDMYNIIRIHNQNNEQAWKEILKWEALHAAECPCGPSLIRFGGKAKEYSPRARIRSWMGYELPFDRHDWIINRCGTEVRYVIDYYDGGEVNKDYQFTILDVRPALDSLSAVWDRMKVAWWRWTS
UniProt P54578: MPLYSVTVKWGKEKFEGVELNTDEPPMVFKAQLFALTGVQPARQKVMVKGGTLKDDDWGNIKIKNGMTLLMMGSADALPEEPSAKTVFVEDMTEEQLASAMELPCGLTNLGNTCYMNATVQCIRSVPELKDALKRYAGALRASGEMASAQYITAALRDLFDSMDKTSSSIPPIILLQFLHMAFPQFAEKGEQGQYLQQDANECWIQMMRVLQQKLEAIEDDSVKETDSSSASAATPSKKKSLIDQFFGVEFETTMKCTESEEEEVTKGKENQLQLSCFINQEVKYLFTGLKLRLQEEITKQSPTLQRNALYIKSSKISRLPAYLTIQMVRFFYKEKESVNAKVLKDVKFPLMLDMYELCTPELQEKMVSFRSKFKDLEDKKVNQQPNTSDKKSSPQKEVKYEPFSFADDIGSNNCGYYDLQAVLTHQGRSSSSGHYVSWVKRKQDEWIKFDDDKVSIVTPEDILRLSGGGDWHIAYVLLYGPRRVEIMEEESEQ
UniProt P54132: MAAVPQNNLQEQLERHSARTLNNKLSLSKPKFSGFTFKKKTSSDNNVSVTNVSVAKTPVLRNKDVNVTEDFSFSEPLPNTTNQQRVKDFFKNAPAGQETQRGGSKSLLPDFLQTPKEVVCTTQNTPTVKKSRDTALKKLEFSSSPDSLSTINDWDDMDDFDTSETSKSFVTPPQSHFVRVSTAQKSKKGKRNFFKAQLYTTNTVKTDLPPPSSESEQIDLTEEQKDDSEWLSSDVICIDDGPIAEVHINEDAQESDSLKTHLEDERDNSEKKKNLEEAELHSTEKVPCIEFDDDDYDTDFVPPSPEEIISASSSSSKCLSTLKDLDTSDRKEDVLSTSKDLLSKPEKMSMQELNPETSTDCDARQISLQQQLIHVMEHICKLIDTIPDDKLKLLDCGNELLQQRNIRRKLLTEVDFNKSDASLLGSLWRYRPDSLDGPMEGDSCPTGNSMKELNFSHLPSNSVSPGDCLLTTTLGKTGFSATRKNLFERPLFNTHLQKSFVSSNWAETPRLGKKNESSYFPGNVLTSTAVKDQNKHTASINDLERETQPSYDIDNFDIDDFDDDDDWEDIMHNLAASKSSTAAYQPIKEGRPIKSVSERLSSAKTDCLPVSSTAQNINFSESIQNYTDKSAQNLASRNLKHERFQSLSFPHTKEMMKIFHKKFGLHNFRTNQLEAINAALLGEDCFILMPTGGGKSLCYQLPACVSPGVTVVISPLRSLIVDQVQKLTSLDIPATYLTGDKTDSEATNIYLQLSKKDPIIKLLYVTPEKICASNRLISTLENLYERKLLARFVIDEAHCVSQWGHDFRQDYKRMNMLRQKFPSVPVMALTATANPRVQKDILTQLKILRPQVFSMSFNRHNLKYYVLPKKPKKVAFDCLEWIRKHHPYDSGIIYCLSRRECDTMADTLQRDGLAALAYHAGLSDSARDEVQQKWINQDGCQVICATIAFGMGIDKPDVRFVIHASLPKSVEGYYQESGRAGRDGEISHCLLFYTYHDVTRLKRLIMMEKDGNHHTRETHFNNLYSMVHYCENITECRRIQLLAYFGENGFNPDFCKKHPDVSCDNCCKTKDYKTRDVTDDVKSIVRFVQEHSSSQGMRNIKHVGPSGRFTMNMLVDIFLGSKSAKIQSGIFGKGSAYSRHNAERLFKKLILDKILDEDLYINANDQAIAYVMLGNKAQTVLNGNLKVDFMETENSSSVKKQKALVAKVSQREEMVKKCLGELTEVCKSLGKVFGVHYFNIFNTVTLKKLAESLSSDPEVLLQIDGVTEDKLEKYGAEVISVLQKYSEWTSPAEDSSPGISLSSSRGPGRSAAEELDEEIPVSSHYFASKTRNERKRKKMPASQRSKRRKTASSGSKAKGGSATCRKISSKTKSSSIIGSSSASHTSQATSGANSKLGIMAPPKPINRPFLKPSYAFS

The targets below were run with COC(=O)C#Cc1ccccc1 [methyl 3-phenylpropiolate] (assay: log2 ratio of iodoacetamide-alkyne labeling of the cysteine site, DMSO over compound (competition); higher = stronger covalent engagement of the cysteine by the compound, active = 1 or more). Conditions: 500 µM; treatment time 1 h; system: HEK293T cell lysate.
Method in brief: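 After 1 h at ambient temperature with vehicle or electrophile (500 µM), HEK293T lysate (2 mg/mL) was labelled for 1 h with iodoacetamide alkyne and clicked to sCIP-TMT reagents. Pooled samples were trypsin-digested overnight at 37 °C, streptavidin-enriched, acid-eluted and analysed by Orbitrap Eclipse LC-MS/MS with FAIMS, then quantified in FragPipe over three replicates with duplicate channels. A cysteine's log2 competition ratio is its mean control-channel over mean compound-channel reporter intensity. Cysteines quantified in only one replicate were not included.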

log2 ratio of iodoacetamide-alkyne labeling, inactive:
SUOX C310 (UniProt P51687) 0.0591
KIF11 C773 (UniProt P52732) 0.48
UniProt P60709_C272 -0.088
AK2 C232 (UniProt P54819) -0.302
ADAR C622 (UniProt P55265) 0.15
UniProt P60891_C91 -0.381
HNRNPM C653 (UniProt P52272) 0.0149
UniProt P62241_C182 0.549
UniProt P61978_C132 0.275
USP46 C10 (UniProt P62068) 0.797
HCCS C46 (UniProt P53701) 0.886
EIF6 C110 (UniProt P56537) 0.272
USP14 C415 (UniProt P54578) -0.369
BLM C704 (UniProt P54132) 0.6

Random excerpt: 2 entries already listed, in no set order.
log2 ratio of iodoacetamide-alkyne labeling, inactive:
HNRNPM C653 (UniProt P52272) 0.0149
UniProt P62241_C182 0.549
